No constants are given. Whether binding was seen depends on the method and setting. Binding seen in cells or lysates may run through a third protein. Some entries that bind do so weakly or less than the wild type.
Biological target: Regulator of Presynaptic Morphology 1 (RPM-1) fused with Green Fluorescent Protein (C. elegans) (UniProt Q17551)
Experiment: co-IP; whole worm lysates of transgenic animals (juIs58), 0.1% NP-40 lysis buffer, 40 mg total protein extract; RPM-1::GFP precipitated with mouse monoclonal anti-GFP (3E6) and protein G agarose; blot with anti-ANC-1 polyclonal antibodies

Sequences of proteins named here, by UniProt entry; tags and fusion partners are left off.
UniProt Q17551: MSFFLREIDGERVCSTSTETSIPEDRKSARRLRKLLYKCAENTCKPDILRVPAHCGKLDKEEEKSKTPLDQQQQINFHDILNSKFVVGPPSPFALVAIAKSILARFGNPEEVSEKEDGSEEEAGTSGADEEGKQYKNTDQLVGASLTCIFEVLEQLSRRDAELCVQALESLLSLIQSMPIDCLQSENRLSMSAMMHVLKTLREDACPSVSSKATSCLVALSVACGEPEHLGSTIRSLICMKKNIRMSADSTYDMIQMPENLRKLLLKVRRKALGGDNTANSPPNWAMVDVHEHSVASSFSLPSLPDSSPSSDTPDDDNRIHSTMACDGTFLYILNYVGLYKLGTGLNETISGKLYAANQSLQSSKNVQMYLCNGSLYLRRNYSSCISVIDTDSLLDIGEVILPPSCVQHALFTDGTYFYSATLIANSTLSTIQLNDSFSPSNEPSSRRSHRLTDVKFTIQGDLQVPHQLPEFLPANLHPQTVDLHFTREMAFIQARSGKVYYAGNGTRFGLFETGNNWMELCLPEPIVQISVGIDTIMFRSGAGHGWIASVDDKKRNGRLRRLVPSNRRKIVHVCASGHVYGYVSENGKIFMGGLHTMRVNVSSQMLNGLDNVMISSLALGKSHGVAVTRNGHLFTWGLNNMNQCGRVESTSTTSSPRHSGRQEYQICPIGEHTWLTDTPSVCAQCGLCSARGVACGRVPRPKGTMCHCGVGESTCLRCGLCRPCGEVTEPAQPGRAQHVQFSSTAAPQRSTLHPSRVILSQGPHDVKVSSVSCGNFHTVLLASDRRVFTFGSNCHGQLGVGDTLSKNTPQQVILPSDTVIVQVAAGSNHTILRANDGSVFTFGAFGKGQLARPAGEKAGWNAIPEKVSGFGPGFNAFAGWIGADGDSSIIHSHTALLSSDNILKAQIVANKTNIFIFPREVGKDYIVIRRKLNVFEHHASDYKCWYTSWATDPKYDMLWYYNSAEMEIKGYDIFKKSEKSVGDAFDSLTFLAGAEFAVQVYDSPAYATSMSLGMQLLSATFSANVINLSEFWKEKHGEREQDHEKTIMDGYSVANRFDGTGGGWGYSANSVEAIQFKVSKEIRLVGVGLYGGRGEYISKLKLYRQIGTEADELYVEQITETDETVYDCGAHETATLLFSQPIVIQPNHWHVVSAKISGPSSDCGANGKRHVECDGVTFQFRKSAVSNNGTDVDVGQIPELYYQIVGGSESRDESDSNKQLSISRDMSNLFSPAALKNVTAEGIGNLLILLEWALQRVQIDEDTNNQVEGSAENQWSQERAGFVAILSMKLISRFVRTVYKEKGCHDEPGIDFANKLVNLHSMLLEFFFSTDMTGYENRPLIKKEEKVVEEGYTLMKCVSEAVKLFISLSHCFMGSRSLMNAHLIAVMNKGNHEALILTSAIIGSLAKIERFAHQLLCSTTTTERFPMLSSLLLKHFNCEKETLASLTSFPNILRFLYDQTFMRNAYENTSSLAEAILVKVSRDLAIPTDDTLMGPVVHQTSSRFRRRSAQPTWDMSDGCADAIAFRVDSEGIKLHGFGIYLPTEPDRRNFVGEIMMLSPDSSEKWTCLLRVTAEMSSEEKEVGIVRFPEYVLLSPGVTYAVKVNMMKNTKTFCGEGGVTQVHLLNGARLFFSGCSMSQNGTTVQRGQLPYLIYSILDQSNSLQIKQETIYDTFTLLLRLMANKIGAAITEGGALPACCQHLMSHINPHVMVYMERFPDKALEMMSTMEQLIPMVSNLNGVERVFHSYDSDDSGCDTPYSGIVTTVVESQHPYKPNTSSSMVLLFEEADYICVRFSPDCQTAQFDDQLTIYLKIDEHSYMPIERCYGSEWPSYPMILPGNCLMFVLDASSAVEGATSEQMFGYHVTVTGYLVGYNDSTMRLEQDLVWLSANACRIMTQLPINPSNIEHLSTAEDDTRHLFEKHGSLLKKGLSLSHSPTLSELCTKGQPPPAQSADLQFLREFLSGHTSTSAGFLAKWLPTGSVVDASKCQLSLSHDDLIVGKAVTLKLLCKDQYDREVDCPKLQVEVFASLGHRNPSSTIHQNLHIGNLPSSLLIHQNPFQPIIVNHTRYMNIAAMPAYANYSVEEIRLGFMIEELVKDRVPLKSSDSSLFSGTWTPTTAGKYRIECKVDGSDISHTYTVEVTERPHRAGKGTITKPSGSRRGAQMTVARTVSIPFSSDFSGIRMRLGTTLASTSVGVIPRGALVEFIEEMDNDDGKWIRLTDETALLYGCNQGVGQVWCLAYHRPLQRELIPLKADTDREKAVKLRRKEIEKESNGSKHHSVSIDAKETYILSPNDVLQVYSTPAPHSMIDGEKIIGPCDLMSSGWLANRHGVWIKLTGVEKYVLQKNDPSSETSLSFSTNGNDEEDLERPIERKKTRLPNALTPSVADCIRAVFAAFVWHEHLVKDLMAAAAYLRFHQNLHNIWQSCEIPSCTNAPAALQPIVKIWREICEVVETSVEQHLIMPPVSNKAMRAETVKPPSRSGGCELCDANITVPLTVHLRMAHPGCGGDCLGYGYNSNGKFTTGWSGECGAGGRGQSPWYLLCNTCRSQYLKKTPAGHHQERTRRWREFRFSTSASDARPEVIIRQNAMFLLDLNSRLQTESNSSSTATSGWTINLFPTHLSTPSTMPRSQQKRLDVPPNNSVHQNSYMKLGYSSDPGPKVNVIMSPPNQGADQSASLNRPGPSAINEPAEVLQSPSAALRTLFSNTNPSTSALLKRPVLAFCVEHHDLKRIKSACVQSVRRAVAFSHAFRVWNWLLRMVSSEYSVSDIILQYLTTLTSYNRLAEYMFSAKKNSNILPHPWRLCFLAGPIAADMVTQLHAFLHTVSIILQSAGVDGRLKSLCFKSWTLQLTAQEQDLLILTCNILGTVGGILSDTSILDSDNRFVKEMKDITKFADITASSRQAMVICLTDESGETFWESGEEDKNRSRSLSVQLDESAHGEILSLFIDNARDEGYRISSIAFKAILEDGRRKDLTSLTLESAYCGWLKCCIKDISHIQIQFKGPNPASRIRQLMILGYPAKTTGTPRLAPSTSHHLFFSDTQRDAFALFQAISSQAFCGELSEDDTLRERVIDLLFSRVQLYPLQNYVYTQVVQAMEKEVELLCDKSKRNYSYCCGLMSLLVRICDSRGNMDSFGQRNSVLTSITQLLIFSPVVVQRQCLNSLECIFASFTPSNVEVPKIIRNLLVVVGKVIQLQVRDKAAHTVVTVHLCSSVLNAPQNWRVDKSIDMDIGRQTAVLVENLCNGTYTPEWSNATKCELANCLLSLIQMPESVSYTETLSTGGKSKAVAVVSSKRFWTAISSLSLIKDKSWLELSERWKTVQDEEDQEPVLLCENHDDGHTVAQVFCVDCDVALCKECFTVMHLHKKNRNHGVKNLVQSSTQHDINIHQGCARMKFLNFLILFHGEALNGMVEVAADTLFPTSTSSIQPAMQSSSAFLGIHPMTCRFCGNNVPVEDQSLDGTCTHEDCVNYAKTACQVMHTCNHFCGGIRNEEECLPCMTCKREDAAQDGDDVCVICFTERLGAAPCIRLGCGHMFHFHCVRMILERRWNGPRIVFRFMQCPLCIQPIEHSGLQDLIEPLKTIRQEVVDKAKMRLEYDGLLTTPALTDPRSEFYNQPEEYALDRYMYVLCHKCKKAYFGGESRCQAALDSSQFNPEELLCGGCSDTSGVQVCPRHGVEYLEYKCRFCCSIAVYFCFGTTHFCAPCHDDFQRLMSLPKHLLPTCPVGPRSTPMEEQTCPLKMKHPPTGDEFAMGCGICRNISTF

binding: binds
Substance: abnormal nuclear Anchorage 1 (ANC-1) (from UniProt Q9N4M4 1-8545)
